Laboratory results as given in article PMC9845307, “Arabidopsis LSH10 transcription factor and OTLD1 histone deubiquitinase interact and transcriptionally regulate the same target genes”.

Experiments:
[1] = biological target: OTLD1 tagged with a YFP half (BiFC) (Arabidopsis); test: split reporter; BiFC: nEYFP- and cEYFP-tagged proteins transiently co-expressed in N. benthamiana leaves by agroinfiltration; confocal microscopy 2 days after infiltration
OTLD1-RFP (Arabidopsis) [2] = test: FRET or BRET; sensitized emission FRET (SE-FRET): GFP donor, RFP acceptor, transiently co-expressed in N. benthamiana leaves; cell nuclei, confocal microscopy, PixFRET correction
OTLD1-RFP (Arabidopsis) [3] = test: FRET or BRET; acceptor photobleaching FRET (AB-FRET): GFP donor, RFP acceptor, transiently co-expressed in N. benthamiana leaves; %AB-FRET = percent increase in GFP emission after RFP photobleaching, cell nucleus, n = 13 cells

B1: LSH10 tagged with a YFP half (BiFC) (protein, UniProt Q9S7R3 1-177)
chain: MSSPRERGKSLMESSGSEPPVTPSRYESQKRRDWNTFGQYLKNQRPPVPMSHCSCNHVLDFLRYLDQFGKTKVHVPGCMFYGQPEPPAPCTCPLRQAWGSLDALIGRLRAAYEENGGPPETNPFASGAIRVYLREVRECQAKARGIPYKKKKKKKPTPEMGGGREDSSSSSSSFSFS
How did the binding [1] turn out when B1 was run?
Its binding is “binds”.

B2: LSH10-GFP (protein, UniProt Q9S7R3 1-177)
chain: MSSPRERGKSLMESSGSEPPVTPSRYESQKRRDWNTFGQYLKNQRPPVPMSHCSCNHVLDFLRYLDQFGKTKVHVPGCMFYGQPEPPAPCTCPLRQAWGSLDALIGRLRAAYEENGGPPETNPFASGAIRVYLREVRECQAKARGIPYKKKKKKKPTPEMGGGREDSSSSSSSFSFS
B2 was tested. Which binding (OTLD1-RFP (Arabidopsis) [2]) did it give?
The binding was “binds”.

B3: LSH4-GFP (protein, UniProt Q9LW68 1-195)
chain: MDHIIGFMGTTNMSHNTNLMIAAAATTTTTSSSSSSSSGGSGTNQLSRYENQKRRDWNTFGQYLRNHRPPLSLSRCSGAHVLEFLRYLDQFGKTKVHTHLCPFFGHPNPPAPCACPLRQAWGSLDALIGRLRAAFEENGGSPETNPFGARAVRLYLREVRDSQAKARGISYEKKKRKRPPPPLPPAQPAISSSPN
How did the binding (OTLD1-RFP (Arabidopsis) [3]) turn out when B3 was run?
The binding was “no binding”.

What about the binding (OTLD1-RFP (Arabidopsis) [2]) of the same binder?
The binding was “no binding”.

Results are given in words; binding and its absence hold for the method and conditions named. In cells and extracts the contact can be indirect. For some of these results: A result given as binding can be weak or reduced; the word gives no strength. Where a sequence is shown, tags or fusion partners need not be part of it.
